Measurements reported in PubChem BioAssay AID1259405 (NCATS, 2018).
This is a random part of about 50,000 reagents tested. Over the whole deposit, about 4,000 (8%) are marked active. 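Mouse siRNA library applied to hamster cells; one well for each siRNA.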 Unmarked entries are inactive.

- Assay: 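Silenced genes that increase secreted GFP made by CHO cells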 (primary screen)
- System: Chinese hamster CHO-K1 ovary cells with stable secreted eGFP expression
- Reagents: single siRNA against mouse genes, 0.8 pmol siRNA per well (2 µl of 400 nM stock)
- Time to read-out: 3 days
- Read-out: 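Per-well intracellular GFP measured by laser scanning cytometry, plus viability from ATP luminescence, each relative to plate median of non-targeting control wells, in %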
- Reading the numbers: GFP, % of control: higher = more GFP per well, higher productivity; viability (ATP), % of control: higher = more viable cells (more ATP)
- Hit rule: 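Called active when intracellular GFP, relative to negative control, is at or above 120%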

Sstr5 [SID363571342]: GFP, % of control = 111; viability (ATP), % of control = 86.1
Sstr5 [SID363571694]: GFP, % of control = 62.9; viability (ATP), % of control = 64.8
Sstr5 [SID363572046]: GFP, % of control = 59.9; viability (ATP), % of control = 45.3
Gldn [SID363550326]: GFP, % of control = 99.9; viability (ATP), % of control = 86.1
Gldn [SID363564835]: GFP, % of control = 81.8; viability (ATP), % of control = 67.1
Gldn [SID363588380]: GFP, % of control = 106; viability (ATP), % of control = 98.4
Dnai3 [SID363540918]: GFP, % of control = 58.8; viability (ATP), % of control = 58.6
Dnai3 [SID363555545]: GFP, % of control = 65.5; viability (ATP), % of control = 85.3
Dnai3 [SID363565834]: GFP, % of control = 75.7; viability (ATP), % of control = 79.2
Scg5 [SID363572527]: GFP, % of control = 31.1; viability (ATP), % of control = 62.3
Scg5 [SID363577807]: GFP, % of control = 109; viability (ATP), % of control = 95.9
Scg5 [SID363582031]: GFP, % of control = 89.1; viability (ATP), % of control = 134
9230112E08Rik [SID363542814]: GFP, % of control = 91.7; viability (ATP), % of control = 79.8
9230112E08Rik [SID363546331]: GFP, % of control = 69.3; viability (ATP), % of control = 56.4
9230112E08Rik [SID363548087]: GFP, % of control = 118; viability (ATP), % of control = 100
Dad1 [SID363545435]: GFP, % of control = 95.5; viability (ATP), % of control = 84.7
Dad1 [SID363548948]: GFP, % of control = 76.4; viability (ATP), % of control = 88.5
Dad1 [SID363562754]: GFP, % of control = 40.7; viability (ATP), % of control = 26.9
Rhbdl3 [SID363574488]: GFP, % of control = 127 (active); viability (ATP), % of control = 111
Rhbdl3 [SID363575544]: GFP, % of control = 62.5; viability (ATP), % of control = 27.8
Rhbdl3 [SID363580120]: GFP, % of control = 70.7; viability (ATP), % of control = 68
Nrdc [SID363569736]: GFP, % of control = 111; viability (ATP), % of control = 88.1
Nrdc [SID363576776]: GFP, % of control = 138 (active); viability (ATP), % of control = 104
Nrdc [SID363578184]: GFP, % of control = 75.9; viability (ATP), % of control = 75.5
Or5b24 [SID363544564]: GFP, % of control = 82.2; viability (ATP), % of control = 85.3
Or5b24 [SID363550892]: GFP, % of control = 69.5; viability (ATP), % of control = 86
Or5b24 [SID363557441]: GFP, % of control = 76.2; viability (ATP), % of control = 55.2

Not a retest: entries from further up.
Dad1 [SID363548948]: GFP, % of control = 76.4; viability (ATP), % of control = 88.5
Dad1 [SID363562754]: GFP, % of control = 40.7; viability (ATP), % of control = 26.9
Rhbdl3 [SID363574488]: GFP, % of control = 127 (active); viability (ATP), % of control = 111
Rhbdl3 [SID363575544]: GFP, % of control = 62.5; viability (ATP), % of control = 27.8

More results follow:
Picalm [SID363547851]: GFP, % of control = 82.8; viability (ATP), % of control = 72.6
Picalm [SID363558620]: GFP, % of control = 91.8; viability (ATP), % of control = 77.6
Picalm [SID363560378]: GFP, % of control = 88; viability (ATP), % of control = 100
Rab33a [SID363570327]: GFP, % of control = 80.4; viability (ATP), % of control = 98.8
Rab33a [SID363576663]: GFP, % of control = 41.1; viability (ATP), % of control = 59.3
Rab33a [SID363579831]: GFP, % of control = 49.2; viability (ATP), % of control = 70.9
Bmp2k [SID363547359]: GFP, % of control = 78; viability (ATP), % of control = 64.9
Bmp2k [SID363558128]: GFP, % of control = 68.7; viability (ATP), % of control = 69.1
Bmp2k [SID363559886]: GFP, % of control = 85.4; viability (ATP), % of control = 61.9
Slc1a4 [SID363574723]: GFP, % of control = 88; viability (ATP), % of control = 78.9
Slc1a4 [SID363575779]: GFP, % of control = 77.7; viability (ATP), % of control = 73.9
Slc1a4 [SID363580355]: GFP, % of control = 60.1; viability (ATP), % of control = 85.6
Ier2 [SID363540204]: GFP, % of control = 67.8; viability (ATP), % of control = 64.8
Ier2 [SID363541956]: GFP, % of control = 65.7; viability (ATP), % of control = 87.5
Ier2 [SID363566872]: GFP, % of control = 84.4; viability (ATP), % of control = 80.8
